Publication PMC7859635, “The “C3aR Antagonist” SB290157 is a Partial C5aR2 Agonist” (Frontiers in Pharmacology, 2021)
Results are given in words; binding and its absence hold for the method and conditions named. In cells and extracts the contact can be indirect. Some binding calls cover weakened binding; strength is not graded here.

Amino acid sequences for entries named in this document (tags omitted).
UniProt Q9P296: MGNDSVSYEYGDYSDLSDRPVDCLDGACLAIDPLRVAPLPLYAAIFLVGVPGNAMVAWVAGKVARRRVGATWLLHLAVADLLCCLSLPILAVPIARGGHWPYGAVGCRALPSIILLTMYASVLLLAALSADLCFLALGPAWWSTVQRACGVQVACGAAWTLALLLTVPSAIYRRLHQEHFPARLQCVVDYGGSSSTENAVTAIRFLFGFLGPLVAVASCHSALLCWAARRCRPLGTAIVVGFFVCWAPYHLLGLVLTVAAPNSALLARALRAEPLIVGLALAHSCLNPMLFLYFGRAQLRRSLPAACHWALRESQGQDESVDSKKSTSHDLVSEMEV
UniProt P32121: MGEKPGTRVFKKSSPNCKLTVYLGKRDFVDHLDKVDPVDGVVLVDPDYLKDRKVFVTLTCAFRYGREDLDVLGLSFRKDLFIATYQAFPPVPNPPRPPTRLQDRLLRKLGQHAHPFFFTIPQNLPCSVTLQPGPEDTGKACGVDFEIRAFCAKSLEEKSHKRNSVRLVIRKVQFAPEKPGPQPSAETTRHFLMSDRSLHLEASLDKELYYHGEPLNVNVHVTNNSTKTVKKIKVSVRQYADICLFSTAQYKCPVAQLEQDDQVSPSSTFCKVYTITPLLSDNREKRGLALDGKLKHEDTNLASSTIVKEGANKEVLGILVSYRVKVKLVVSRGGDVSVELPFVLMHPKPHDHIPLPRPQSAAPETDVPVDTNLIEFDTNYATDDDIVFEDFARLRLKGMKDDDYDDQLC

Target: human C5aR2-Venus (human) (UniProt Q9P296)
Test: FRET or BRET; HEK293 cells transiently transfected with β-arrestin 2-Rluc8 and human C5aR2-Venus; substrate EnduRen 30 μM; 37°C; ligand-induced BRET ratio (Venus/Rluc8, vehicle subtracted) after SB290157, P32 or C5a

β-arrestin 2-Renilla luciferase 8 (Rluc8) (from UniProt P32121 1-409)
binding: binds
